From patent US7531507B2 (AiCuris GmbH & Co. KG, priority 2004, dated 2009)
Starred links: 1 amine or outer side, 2 acyl side, 3 side chain; linkers in the order of their positions; H or OH if unused. Positions of bridges follow the written chain, without caps; N, C: chain ends. Non-standard residues stand in square brackets, D forms with d. Phe(3R-OH) = O=C([C@@H](N[*:1])[C@H](O[*:3])c1ccccc1)[*:2]; Asn(3S-OH) = NC(=O)[C@@H](O)[C@H](N)C(=O)O; Leu(3R-OH) = CC(C)[C@@H](O)[C@H](N)C(=O)O; dAla(TMS) = C[Si](C)(C)C[C@@H](N)C(=O)O; 3Pal = N[C@@H](Cc1cccnc1)C(=O)O; aThr = C[C@H](O)[C@H](N)C(=O)O

Test: general procedure: solution-phase peptide synthesis; HATU, N-methylmorpholine
Conditions: trifluoroacetate
[1] = late stage modification step, cyclic, sequence written open

3-(Trimethylsilyl)-D-alanyl-3-(pyridin-3-yl)-L-alanyl-de(1-D-leucyl-2-L-leucyl)-lysobactin trismethanesulphonate
step yield (late stage modification step, run 1): 55% of theory | step yield (late stage modification step, run 2): 92% of theory

3-tert-Butyl-D-alanyl-3-(6-trifluoromethylpyridin-3-yl)-L-alanyl-de(1-D-leucyl-2-L-leucyl)-lysobactin bistrifluoroacetate
step yield [1]: 48% of theory

4,4-Dimethyl-D-norleucyl-3-(pyridin-3-yl)-L-alanyl-de(1-D-leucyl-2-L-leucyl)lysobactin tristrifluoroacetate
step yield [1]: 46% of theory

(Trimethylsilyl)-D-alanyl-3-(pyridin-3-yl)-L-alanyl-de(1-D-leucyl-2-L-leucyl)lysobactin tris-D-tartrate
step yield (late stage modification step): 52% of theory

(Trimethylsilyl)-D-alanyl-3-(pyridin-3-yl)-L-alanyl-de(1-D-leucyl-2-L-leucyl)lysobactin tris-L-lactate
step yield (late stage modification step): 99% of theory

(Trimethylsilyl)-D-alanyl-3-(pyridin-3-yl)-L-alanyl-de(1-D-leucyl-2-L-leucyl)lysobactin trishydrochloride
step yield (late stage modification step): 89% of theory

De(1-D-leucyl-2-L-leucyl)lysobactin bistrifluoroacetate (Edman^2.0 Degradation Product)
step yield (late stage modification step, from lysobactin bistrifluoroacetate): 56% of theory

H-[dAla(TMS)][3Pal][Phe(3R-OH)][Leu(3R-OH)]L[dR]I[aThr]G[Asn(3S-OH)]S (ester 3-C; SMILES CC[C@H](C)[C@@H]1NC(=O)[C@@H](CCCNC(=N)N)NC(=O)[C@H](CC(C)C)NC(=O)[C@H]([C@H](O)C(C)C)NC(=O)[C@@H](NC(=O)[C@H](Cc2cccnc2)NC(=O)[C@H](N)C[Si](C)(C)C)[C@@H](c2ccccc2)OC(=O)[C@H](CO)NC(=O)[C@H]([C@H](O)C(N)=O)NC(=O)CNC(=O)[C@H]([C@H](C)O)NC1=O)
step yield (late stage modification step): 67% of theory

N-(tert-Butoxycarbonyl)-3-(trimethylsilyl)-D-alanyl-3-(pyridin-3-yl)-L-alanyl-de(1-D-leucyl-2-L-leucyl)lysobactin trifluoroacetate
step yield (coupling step, run 1): 82% | step yield (coupling step, run 2): 61%

N-[(Benzyloxy)carbonyl]-4,4-dimethyl-D-norleucyl-3-(pyridin-3-yl)-L-alanyl-de(1-D-leucyl-2-L-leucyl)-lysobactin trifluoroacetate
step yield (coupling step): 43% of theory
